According to PMC12727705:
No constants are given. Whether binding was seen depends on the method and setting. In cells and extracts the contact can be indirect. These calls come from enrichment with a bait or labelling near it, and not all partners need be listed. Where a sequence is shown, tags or fusion partners need not be part of it.

B1: DPFF-1 (protein, UniProt Q09477 1-372)
chain: MISENGYMDLMRNCIKWNSRQMEDRKKRLRFPYYEHQTATAQRESRFTTRNVDHMYPSNDPNTVVQFATERWKKSKSQPPSDAVEMSMFLRENPSIQVAIDHLTPQVVGPTTESVSDSSNDSTTIRPSRQTQIKEEYRDDYVLDDELSPDEFGSDEDDWSSRKRRKGNLGPVQKATSSRKKVPTTRSSVSRLTPSRSIVKETKYEEPEEKTYPCDKCSAKYKSLAGLSYHQSYLHDQKSSQPLVKLLSPSIEISTSCDFCSGTAFMNKNTKLPEDLVSCHDCGRSGHPSCLNFNQNVTKIIKRSGWQCLECKSCTICGTSENDDKLLFCDDCDRGYHLYCLTPALEKAPDDEYSCRLCQVEFGDKASAPAKK
B2: PFS-2 (protein, UniProt U4PCM1 1-809)
chain: MNGGMMRGNQMPNVTLTIQPSTSSMQNSQPRIMNNHHHPHNRFQREHVMPDVMGDGPGRRLRKNVANVRRHVDYVSTVLNHCENRLWQYGKQRILQQPDILYQQYAVPADSTPDVPVDCILTKFIRTAMNKVKCPVYSVCWSPEGKRLITGCQTGEFTLWNGTAFNFETILQAHDSAIRALKWASNEQWLLSADQGGYVKYWQPNMNNAHMFSAHKDEAIRGLAFAPTDVKFATASDDGTARVWDFARYTEERVLRGHGAEVRCIDWHPTKGLIATGSRDTQQPVKIWDPKSGSCLATLQEHKSSVMAVEFNKNGNWLLTGGRDHLVKMYDIRMMKEMRTYRAHKKEVISLAWHPIHEGLFVSGGGDGSIVYWMVDGEKEIGLLEHAHDQAIWSMKWHPLGHILATGSNDNNTKFWARNRPGDTVEDIFGLSNTNMIGHLDKEREPRMAPPKPSIETQETYRPDTFIPGMGLDEHLYEQLNRDHNMMTTDSTLLVPDDLTRQNFAPMIGAKRTLIKQPPAKKAQRQFERMWNNSKGIGAGSDDFTTMKGGLGREDAEGAQFGPSKSFLGPPTTGGSLLGPSQPRPQEFRSVPPPQQQQGPPPNWRHQGPPMSGPGQGYGPPGRMGGNQGGWQRPPPQGSYGGQGPPQGSYGGQGTLQGSYASQQGPPPRQIQHIPSDIDYRTAPSSSNGSTGDVDMRTMVPNQPPSGEPEHWRGPPPVSHQQQSQQQHPPPINMQRMDPRRDPRMLSGRSDQLSPSGPPPQQQQSSAQQGGKNQWMPQFEAGQNQNQGNYAGNRGGGVGGRGRGRGQPY
B3: AKT-1 (enzyme, UniProt Q17941 1-541)
chain: MSMTSLSTKSRRQEDVVIEGWLHKKGEHIRNWRPRYFMIFNDGALLGFRAKPKEGQPFPEPLNDFMIKDAATMLFEKPRPNMFMVRCLQWTTVIERTFYAESAEVRQRWIHAIESISKKYKGTNANPQEELMETNQQPKIDEDSEFAGAAHAIMGQPSSGHGDNCSIDFRASMISIADTSEAAKRDKITMEDFDFLKVLGKGTFGKVILCKEKRTQKLYAIKILKKDVIIAREEVAHTLTENRVLQRCKHPFLTELKYSFQEQHYLCFVMQFANGGELFTHVRKCGTFSEPRARFYGAEIVLALGYLHRCDIVYRDMKLENLLLDKDGHIKIADFGLCKEEISFGDKTSTFCGTPEYLAPEVLDDHDYGRCVDWWGVGVVMYEMMCGRLPFYSKDHNKLFELIMAGDLRFPSKLSQEARTLLTGLLVKDPTQRLGGGPEDALEICRADFFRTVDWEATYRKEIEPPYKPNVQSETDTSYFDNEFTSQPVQLTPPSRSGALATVDEQEEMQSNFTQFSFHNVMGSINRIHEASEDNEDYDMG
B4: LIN-9 (protein, UniProt P30630 1-644)
chain: MSSAVRSPRKKAASDTSDPDRTSSPYSLRETSKVPSRYRNEELYLSPSRSIKRTGSPKKSPAKRLNGGRDSPSVNSLTRNSSLTMLAKAALDYESSSCALEYIFQPKEERRPPRRALALSPPPAPSNDLLAKDLEMIEMHQNLVAGLDDLDNPANMTNEAVEHRDTQSFFNMFSTDQERSAMMKQFKTYKNQTSEDVSTFMRANIKKLYNLLRYKKARQWVMCEFFYSAIDEQIFKEENEFATIIRESFPNLKNWNLTRIEWRSIRKLLGKPRRCSKVFFEEERMYLEEKRMKIRSVYEGSYLNDPSIDLKDLPAKLPRPMVVGNRVFARIRNPYDGIYSGIIDAVIPKGFRIIFDKPDIPPTLVSDTEILLDGKLDLLSIAYFIEQANSKLPSGVRPFVAAVRDSSHPHLVRDVLVSRKIERSGGPLMGPNDERLNGKNAEMVGNFPLKFLVNLVKLTKLIDIKKGLIRQLNELNADAEIQNMTSDKYSKAFQEKYAKTIIDLEHVNQNIDINMNGIQDHHMYFSSNDISTSNMKPEAVRQMCSQQAGRFVEHCNQGLNVENVHALTLIQSLTAVLLQVRTMGTQKISAVDLQSLGDAISEIRTAIHPRNVAFFQDYVEVHMKQFHTIMLESGALAGTVSNRK
B5: AKT-2 (enzyme, UniProt Q9XTG7 1-528)
chain: MSTENAHLQKEDIVIESWLHKKGEHIRNWRPRYFILFRDGTLLGFRSKPKEDQPLPEPLNNFMIRDAATVCLDKPRPNMFIVRCLQWTTVIERTFYADSADFRQMWIEAIQAVSSHNRLKENAGNTSMQEEDTNGNPSGESDVNMDATSTRSDNDFESTVMNIDEPEEVPRKNTVTMDDFDFLKVLGQGTFGKVILCREKSSDKLYAIKIIRKEMVVDRSEVAHTLTENRVLYACVHPFLTLLKYSFQAQYHICFVMEFANGGELFTHLQRCKTFSEARTRFYGSEIILALGYLHHRNIVYRDMKLENLLLDRDGHIKITDFGLCKEEIKYGDKTSTFCGTPEYLAPEVIEDIDYDRSVDWWGVGVVMYEMMCGRLPFSAKENGKLFELITTCDLKFPNRLSPEAVTLLSGLLERVPAKRLGAGPDDAREVSRAEFFKDVDWEATLRKEVEPPFKPNVMSETDTSFFDREFTSMPVQLTPPRRGEELPTVDEEEELQANFIQFASYYVSGSLERSYDTNRSADKYEIR
B6: FCP-1 (enzyme, UniProt Q95QG8 1-659)
chain: MDIKFEGNDAECTAGLKKASEGSFVLKDHVLIEFKINGKVAGKIKTPCEGVVTFGKGLKPGIVLNKGQVIATVSECTHAIVIKDMCATCGKDLREKGGRAGQRKEQSTANVSMIHHVPELIVSDTLAKEIGSADENNLITNRKLVLLVDLDQTIIHTSDKPMTVDTENHKDITKYNLHSRVYTTKLRPHTTEFLNKMSNMYEMHIVTYGQRQYAHRIAQILDPDARLFEQRILSRDELFSAQHKTNNLKALFPCGDNLVVIIDDRSDVWMYSEALIQIKPYRFFKEVGDINAPKNSKEQMPVQIEDDAHEDKVLEEIERVLTNIHDKYYEKHDLRGSEEVLLDVKEVIKEERHKVLDGCVIVFSGIVPMGEKLERTDIYRLCTQFGAVIVPDVTDDVTHVVGARYGTQKVYQANRLNKFVVTVQWVYACVEKWLKADENLFQLTKESTPPVGRPLGSKYVNDLANMDTIGKAALADMNNEVDEALSDDEDDGDNEDEDDDGNDVGEDKGDENLEEKQEKNEEEMDDVEQNGSVENQSGDALENETDSTSRGQKRKHCPEMEDEEEESDSDNEDDDTPMSYKALLSDSRKKGRIVPENEDDAVFDVDDEKGHAPANIDEEEDDEDNEDEEVPESDDDDEFEDMAALIERQISDAVDEKDQ

Each binder was assayed against T1, DAF-16::TurboID::mNeongreen::3xFLAG (C. elegans) (UniProt O16850) (assay: proximity labelling; TurboID fused to endogenous DAF-16 in living C. elegans, wild-type (cytoDAF-16) or daf-2(e1370) (nucDAF-16) background; L4/young adults, 1 mM biotin in M9 for 2 h at 21 °C; biotinylated proteins affinity purified on streptavidin and identified by mass spectrometry; control: wild type without …).
T1 sequence: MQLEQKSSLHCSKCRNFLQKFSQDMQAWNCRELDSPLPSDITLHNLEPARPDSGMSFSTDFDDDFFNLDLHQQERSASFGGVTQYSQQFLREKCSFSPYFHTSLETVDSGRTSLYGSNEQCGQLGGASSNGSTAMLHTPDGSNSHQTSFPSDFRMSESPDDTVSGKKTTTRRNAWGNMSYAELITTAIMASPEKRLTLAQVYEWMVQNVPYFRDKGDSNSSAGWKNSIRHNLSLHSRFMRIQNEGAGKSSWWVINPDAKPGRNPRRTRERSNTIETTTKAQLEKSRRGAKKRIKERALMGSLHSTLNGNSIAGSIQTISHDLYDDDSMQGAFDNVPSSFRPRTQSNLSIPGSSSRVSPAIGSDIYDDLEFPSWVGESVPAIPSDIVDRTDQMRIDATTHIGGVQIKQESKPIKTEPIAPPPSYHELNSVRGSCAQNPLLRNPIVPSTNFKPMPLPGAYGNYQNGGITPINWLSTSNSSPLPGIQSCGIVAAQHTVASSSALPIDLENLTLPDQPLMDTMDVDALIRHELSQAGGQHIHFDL

binding, binds:
B1
B2
B3
B4
B5
B6
